Measurements reported in PubChem BioAssay AID1259308 (NCATS, 2017)

- Aim: 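Genes whose loss raises luciferase production in HEK293 cells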 (primary screen)
- Cell system: human HEK293 embryonic kidney cells stably expressing firefly luciferase (HEK-CMV-Luc2-Hygro)
- Knock-down reagent: single siRNA against human genes, 0.8 pmol siRNA per well
- Time to read-out: 72 h
- Detection: 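Luciferase light (ONE-Glo) measured on one replicate plate set and viability (CellTiter-Glo) on the other, scaled to a negative control siRNA, with robust z-scores and luciferase per cell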
- Scale: total luciferase, z-score and total luciferase, % of control: higher = more reporter protein produced; luciferase per cell, z-score: higher = more reporter output per viable cell; viable cells, % of control: higher = more viable cells
- Rule for the call: 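An siRNA counts as active if its total luciferase robust z-score exceeds 3; genes with two or more such siRNAs out of three were retested with fresh siRNAs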
- Meaning of the calls: active = raised luciferase; inactive = no rise
This is an unselected part of about 59,000 reagents tested. About 1,510 of them (2.6%) count as active. 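Calls use total luciferase alone and ignore viability, so some active siRNAs may act by altering cell number.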 Unmarked entries are inactive. The numbers tell different reagents against one gene apart.

gene symbol | reagent no. | total luciferase, z-score | total luciferase, % of control | luciferase per cell, z-score | viable cells, % of control
FABP3 | 1 | 0.0627 | 83.1 | 0.304 | 85.8
FABP3 | 2 | -0.242 | 77.1 | -0.322 | 93.7
FABP3 | 3 | -0.357 | 74.8 | -0.177 | 87.6
DSG4 | 1 | -0.211 | 77.7 | -0.804 | 107
DSG4 | 2 | -0.231 | 77.3 | -0.421 | 96.5
DSG4 | 3 | -0.943 | 63.1 | -1.57 | 107
KCNA4 | 1 | -0.659 | 68.8 | -0.721 | 92.9
KCNA4 | 2 | -0.0858 | 80.2 | -0.254 | 95.8
KCNA4 | 3 | 1.88 | 119 | 1.44 | 91.2
NDUFA7 | 1 | -0.429 | 73.4 | -0.566 | 95.2
NDUFA7 | 2 | 0.508 | 92 | 0.229 | 96.8
NDUFA7 | 3 | -0.00801 | 81.7 | -0.736 | 111
PDRG1 | 1 | 0.932 | 100 | 0.367 | 102
PDRG1 | 2 | 0.246 | 86.8 | -0.0332 | 97.8
PDRG1 | 3 | -0.105 | 79.8 | -0.0493 | 90.3
ACE | 1 | 2.33 | 128 | 1.62 | 93.6
ACE | 2 | -1.19 | 58.2 | -1.58 | 98.4
ACE | 3 | 1.19 | 106 | 0.703 | 98.1
GPRC5D | 1 | -0.0741 | 80.4 | 0.409 | 80.7
GPRC5D | 2 | 0.648 | 94.8 | 0.301 | 97.8
GPRC5D | 3 | 0.112 | 84.1 | -0.394 | 104
C21orf58 | 1 | 0.818 | 98.2 | 0.455 | 97.3
C21orf58 | 2 | -0.74 | 67.2 | -0.964 | 96.7
C21orf58 | 3 | -1.02 | 61.7 | -0.877 | 86.8
STK17B | 1 | -1.32 | 55.7 | 0.126 | 60.2
STK17B | 2 | -0.329 | 75.3 | -0.919 | 107
STK17B | 3 | 0.996 | 102 | 1.97 | 67.7
ONECUT3 | 1 | 1.85 | 119 | 1.67 | 85.4
ONECUT3 | 2 | -0.762 | 66.7 | -0.483 | 84.7
ONECUT3 | 3 | 2.1 | 124 | 2.21 | 77.3
LPIN3 | 1 | -0.24 | 77.1 | -0.558 | 99.8
LPIN3 | 2 | 2.88 | 139 | 1.82 | 96.3
LPIN3 | 3 | -2.59 | 30.5 | -2.48 | 65.3
PTGS2 | 1 | 0.155 | 85 | -0.157 | 98.9
PTGS2 | 2 | 1.65 | 115 | 1.54 | 85.5
PTGS2 | 3 | 1.07 | 103 | 0.796 | 93.4
KRT28 | 1 | -0.883 | 64.3 | -0.903 | 91.2
KRT28 | 2 | 0.181 | 85.5 | -0.129 | 98.8
KRT28 | 3 | -0.273 | 76.5 | 0.716 | 70.8
USP26 | 1 | 2.32 | 128 | 1.44 | 98
USP26 | 2 | 0.278 | 87.4 | 0.148 | 93.9
USP26 | 3 | 0.604 | 93.9 | 0.026 | 104
SCN2A | 1 | 0.126 | 84.4 | 0.0366 | 93.4
SCN2A | 2 | -0.572 | 70.5 | -0.411 | 87.8
SCN2A | 3 | 2.39 | 129 | 1.33 | 102

Records listed so far whose gene name starts with O or o (3):
gene symbol | reagent no. | total luciferase, z-score | total luciferase, % of control | luciferase per cell, z-score | viable cells, % of control
ONECUT3 | 1 | 1.85 | 119 | 1.67 | 85.4
ONECUT3 | 2 | -0.762 | 66.7 | -0.483 | 84.7
ONECUT3 | 3 | 2.1 | 124 | 2.21 | 77.3

The listing continues.
gene symbol | reagent no. | total luciferase, z-score | total luciferase, % of control | luciferase per cell, z-score | viable cells, % of control
NHLH2 | 1 | -0.472 | 72.5 | 0.837 | 65
NHLH2 | 2 | -1.07 | 60.6 | -0.206 | 71.5
NHLH2 | 3 | 0.905 | 99.9 | 0.922 | 87.6
TUSC2 | 1 | 0.516 | 92.1 | 0.225 | 97
TUSC2 | 2 | 0.751 | 96.8 | 0.959 | 84.1
TUSC2 | 3 | 0.687 | 95.6 | 0.992 | 82.2
OR9G1 | 1 | 0.281 | 87.5 | 0.822 | 78.7
OR9G1 | 2 | -1.24 | 57.2 | -0.866 | 80.3
OR9G1 | 3 | 0.311 | 88.1 | -0.128 | 102
WNT7B | 1 | 0.979 | 101 | 0.18 | 108
WNT7B | 2 | 1.43 | 110 | 2.16 | 69.9
WNT7B | 3 | -0.176 | 78.4 | -0.976 | 113
BANF2 | 1 | 0.441 | 90.7 | 1.46 | 68.9
BANF2 | 2 | 0.613 | 94.1 | 0.755 | 86.2
BANF2 | 3 | -0.111 | 79.7 | -0.793 | 110
ARL4C | 1 | 2.18 | 125 | 1.46 | 95.3
ARL4C | 2 | -1.69 | 48.3 | -1.9 | 89
ARL4C | 3 | -0.101 | 79.9 | -0.417 | 99.6
KLF7 | 1 | -0.35 | 74.9 | 0.395 | 75.5
KLF7 | 2 | -0.163 | 78.6 | -0.243 | 93.7
KLF7 | 3 | -0.565 | 70.6 | -0.689 | 94.7
TUBB1 | 1 | -0.64 | 69.2 | -0.401 | 85.9
TUBB1 | 2 | -1.48 | 52.4 | -0.958 | 75.3
TUBB1 | 3 | -1.69 | 48.2 | -1.03 | 70.7
CD320 | 1 | 0.84 | 98.6 | 0.474 | 97.2
CD320 | 2 | 0.403 | 89.9 | 0.109 | 97.6
CD320 | 3 | -1.71 | 47.9 | -0.585 | 62.5
GKN2 | 1 | -0.246 | 77 | 1.05 | 65.3
GKN2 | 2 | -1.2 | 58 | -0.945 | 83.1
GKN2 | 3 | -0.172 | 78.5 | -0.365 | 96.5
